For at least one compound, name, drawing or mass did not settle the structure.
What was measured:
[1] = test system: EGFR gene mutation-positive lung cancer organoid line in which CDKN2A/B was wild-type; format: cell-based, human; conditions: palbociclib high concentration of 10 µM; Fig. 4A
Excerpt: (§1) This study was approved by the Institutional Review Board of Keio University Hospital, Kawasaki Municipal Hospital, and Saiseikai Central Hospital. Written informed consent was obtained from all of patients involved in this study. Clinical specimens of patients with lung cancer having EGFR gene mutation for which the EGFR gene mutation was identified by a clinically known method were sequentially collected from May, 2018 to April, 2022. The clinical specimens used in this study included surgical resection, bronchoscopic biopsy, CT-guided needle biopsy, ascites, pleural effusion, and autopsy specimens. The lung cancer organoid was established by the method previously reported by us (Cell Rep. 2023 Mar 28;42(3):112212). This will be briefly described. For a tissue, a sample was finely cut into 1 mm^3 fragments by using surgical scissors. The fragments were digested by Liberase TH (Roche) at 37°C for 30 minutes. The digested pellets were treated with TrypLE Express (Thermo Fisher Scientific) at 37°C for 10 minutes. The isolated cell was embedded in Matrigel Growth Factor Reduced (Coming) droplets, to laminate a medium. The organoid from the pleural effusion was established in accordance with the above-described report (Cell Rep. 2023 Mar 28;42(3):112212).
(§2) The cell viability assay was performed by using CellTiter-Glo (manufactured by Promega) in accordance with the protocol of the manufacturer as reported by the inventors of the present invention (Cell Rep. 2023 Mar 28;42(3):112212). Each organoid established in "Establishment of EGFR gene mutation-positive lung cancer organoid" was seeded into a 96-well plate (1500 cells/well), and treated with palbociclib and abemaciclib. […] An absorbance was processed by Cytation5 (BioTek, #MO1210), and the measurement was made on the seventh day after that. The IC50 value was calculated by Prism software (GraphPad Prism 7.04). With 1 µM of palbociclib or abemaciclib, cell viability(/DMSO)≥75% was determined as resistant, and cell viability<75% was determined as sensitive.

[2] = test system: EGFR gene mutation-positive lung cancer organoid line in which CDKN2A/B gene deletion was present; format: cell-based, human
Excerpt: as §1, §2

[3] = test system: non-small cell lung cancer having CDKN2A/B gene deletion or loss-of-function mutation; conditions: palbociclib administered alone to a patient; Non-Patent Literature 1; cited from earlier work
[4] = test system: KRAS gene variant in which CDKN2A/B gene deletion or loss-of-function mutation was present; test: In vitro cell viability assay (CellTiter-Glo), KRAS variant organoids; format: cell-based, human; conditions: n=3; sensitive = cell viability <75% at 1 µM; Fig. 6B
[5] = test system: lung adenocarcinoma-derived line E-17 having EGFR gene mutation (G719A) and CDKN2A/B gene deletion; test: Organoid xenograft in vivo efficacy experiment, line E-17; set-up: species or system mice; conditions: 21st day; palbociclib 150 mg/kg/day oral, three weeks, versus vehicle group; n=5; Fig. 5(C)
[6] = test system: lung adenocarcinoma-derived line E-14 having EGFR gene mutation (19del) and CDKN2A/B gene deletion; test: Organoid xenograft in vivo efficacy experiment, line E-14; set-up: species or system mice; conditions: 21st day; palbociclib 150 mg/kg/day oral, three weeks, versus vehicle group; n=5; Fig. 5(B)
[7] = test system: squamous cell carcinoma-derived line E-12 having EGFR gene mutation (exon 19 deletion (19del)) and CDKN2A/B gene deletion; test: Organoid xenograft in vivo efficacy experiment, line E-12; set-up: species or system mice; conditions: 21st day; palbociclib 150 mg/kg/day oral, three weeks, versus vehicle group; n=5; Fig. 5(A)
[8] = test system: line (E-01B) having EGFR gene mutation (L858R) and a wild-type CDKN2A/B gene; test: Organoid xenograft in vivo efficacy experiment, line E-01B; set-up: species or system mice; conditions: palbociclib 150 mg/kg/day oral, three weeks, versus vehicle group; n=5; Fig. 5(D)

Compound: CC(=O)c1c(C)c2cnc(Nc3ccc(N4CCNCC4)cn3)nc2n(C2CCCC2)c1=O [palbociclib]
- cell viability [1]: reduced
- IC50 value ([2]; compared with EGFR gene mutation-positive line in which CDKN2A/B was wild-type, n=8 vs n=5, p<0.01, Fig. 4B): significantly low
- cell viability ([2]; palbociclib high concentration of 10 µM, Fig. 4A): reduced
- antitumor activity [3]: moderate antitumor activity
- palbociclib sensitive/resistant [4]: palbociclib sensitive ones and palbociclib resistant ones coexisted
- average tumor volume of the xenograft tumor [5]: significantly reduced
- average tumor volume of the xenograft tumor [6]: significantly reduced
- average tumor volume of the xenograft tumor [7]: significantly reduced
- average tumor volume of the xenograft tumor [8]: not significantly different

Source: EP4768600A1, “METHOD FOR ACQUIRING DATA ON EFFICACY OF CDK4/6 INHIBITOR IN LUNG CANCER” (Keio University, priority 2023, dated 2025)
